Binding data for one substance are collected here from article PMC10908796, “RTF2 controls replication repriming and ribonucleotide excision at the replisome” (Nature Communications, 2024).

By UniProt entry, the sequences of proteins in these tests, tags left out.
UniProt O75792: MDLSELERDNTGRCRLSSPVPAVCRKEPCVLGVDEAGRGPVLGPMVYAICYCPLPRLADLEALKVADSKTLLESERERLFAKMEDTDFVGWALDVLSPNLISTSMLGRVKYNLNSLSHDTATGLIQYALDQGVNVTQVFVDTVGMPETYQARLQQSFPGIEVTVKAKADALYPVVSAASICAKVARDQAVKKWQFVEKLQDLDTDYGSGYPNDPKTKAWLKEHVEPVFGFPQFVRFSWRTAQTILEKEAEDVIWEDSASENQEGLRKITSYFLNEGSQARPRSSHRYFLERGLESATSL

These are yes or no findings as the source states them, for the method shown. Binding seen in cells or lysates may run through a third protein. These calls come from enrichment with a bait or labelling near it, and not all partners need be listed. Sequences can lack the tags named with a protein.

Assay [1] has as its target T1, GFP-AID-RTF2 (endogenously tagged) (human) (UniProt Q9BY42).
T1 sequence: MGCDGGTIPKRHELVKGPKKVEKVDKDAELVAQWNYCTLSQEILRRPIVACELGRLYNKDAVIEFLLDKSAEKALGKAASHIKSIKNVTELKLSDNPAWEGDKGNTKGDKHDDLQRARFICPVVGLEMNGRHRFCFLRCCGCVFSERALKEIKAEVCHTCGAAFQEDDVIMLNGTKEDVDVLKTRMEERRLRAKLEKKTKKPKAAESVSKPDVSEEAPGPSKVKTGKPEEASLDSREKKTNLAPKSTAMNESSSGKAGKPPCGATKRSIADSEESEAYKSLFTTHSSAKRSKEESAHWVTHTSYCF
The assay is described as follows: affinity purification with mass spectrometry; endogenously tagged GFP-AID-RTF2 HEK293T cells; lysate (50 mM HEPES pH 7.5, 150 mM NaCl, 2 mM MgCl2, 0.1% Tween-20, sonicated, benzonase) on GFP-rabbit antibody coupled M270 epoxy beads, 2 h at 4 °C; eluted with 8 M urea; LC-MS.

Assay [2] addresses T2, GFP-hRTF2 (overexpressed) (human) (UniProt Q9BY42).
T2 sequence: T1 sequence
The assay is described as follows: affinity purification with mass spectrometry; HEK293T overexpressing GFP-EV or GFP-hRTF2; chromatin extracts on GFP-nanobody coupled M270 epoxy beads, 2 h at 4 °C; eluted with 8 M urea; LC-MS.

For “RNASEH2A, endogenous (from UniProt O75792 1-299)”, the binding entry in assay [1] and in assay [2] was “binds” each time.
